Results as given in PMC7617243.

By UniProt entry, the sequences of proteins in these tests, tags left out.
UniProt Q6PD10: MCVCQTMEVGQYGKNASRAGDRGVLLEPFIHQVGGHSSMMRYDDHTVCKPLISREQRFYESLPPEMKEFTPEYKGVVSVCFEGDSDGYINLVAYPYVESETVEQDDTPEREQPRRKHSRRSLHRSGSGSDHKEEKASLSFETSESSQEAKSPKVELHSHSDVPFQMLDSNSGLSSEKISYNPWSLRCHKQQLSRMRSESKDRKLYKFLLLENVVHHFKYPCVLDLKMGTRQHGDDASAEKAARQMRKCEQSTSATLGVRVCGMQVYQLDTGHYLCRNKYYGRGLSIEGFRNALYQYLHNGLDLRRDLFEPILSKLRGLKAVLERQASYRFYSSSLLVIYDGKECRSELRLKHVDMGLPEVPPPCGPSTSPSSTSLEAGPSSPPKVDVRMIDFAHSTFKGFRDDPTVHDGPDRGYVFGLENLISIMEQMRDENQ

Target: Inositol hexakisphosphate kinase 1 (IP6K1), endogenous (mouse (endogenous in primary murine hepatocytes)) (UniProt Q6PD10)
Assay: affinity purification with mass spectrometry; endogenous IP6K1 immunoprecipitated in primary murine hepatocytes; protein electrophoresis, silver staining, band identified by mass spectrometry

binding: binds
B1: Ubiquitination factor E4A (UBE4A), endogenous (enzyme, UniProt E9Q735 1-1028)
chain: MTDQENNNNISSNPFAALFGSLADAKQFAAIQKEQLKQQSDELPASPDDSDNSVSESLDEFDYSVSEISRSFRTHQEMCEQLNINHMIQRIFLITLDNSDPSLKSGNGIPSRCVYLEEMAVELEDQDWLDMSNVEQAIFARLLLQDPGNHLISMTSSTTLNLSADRDAGERHIFCYLYSCFQRAKEEITKVPENLLPFAVQCRNLTVSNTRTVLLTPEIYVDQNIHEQLVDLMLEAIQGAHFEDVTEFLEEVIEALLLDEEVRTFPEVMIPVFDILLSRIKDLELCQILLYAYLDILLYFTRQKDMAKVFLEYIQPKDPSNGQMYQKTLLGVILNISCLLKTPGVVENHGFFLNPSRSSPQEIKVQEANIHQFMAQFHEKIYQMLKNLLQLSPETKHCILFWLGNCLHANAGRTKIWANQMPEIFFQMYASDAFFLNLGAALLKLCQPFCKPRSSRLLTFNPTYCVLKDLNDEERKIKSVHMRGLDKETCLIPAVQEPTFPQSYNLVTENLALTEYTLYLGFHRLHDQMVKINQNLHRLQVAWRDAQQSSSPAADNLREQFERLMTIYLSTKTAMTEPQMLQNCLNLQVSMAVLLVQLAIGNEGSQPIELSFPLPDGYSSLAYVPEFFADNLGDFLIFLRRFAEDILETSADSLEHVLHFITIFTGSIERMKNPHLRAKLAEVLEAVMPHLDQTPSPLVSSVFHRKRVFCNFPYAPQLAEALIKVFVDIEFTGDPHQFEQKFNYRRPMYPILRYMWGTDCYRESIKYLSKIKIQQIEKDRGEWESLTPEARREKEAGLQMFGQLARFHNIMSNETIGTLSFLTSEIKSLFVHPFLAERIISMLNYFLQHLVGPKMGALKVKDFSEFDFKPQQLVSDICTIYLNLGDEENFCATVPKDGRSYSPTLFAQTVRVLKKINKPGNMIVAFSNLAERIKSLADLQQQEEETYADACDEFLDPIMSTLMSDPVVLPSSRVTVDRSTIARHLLSDQTDPFNRSPLTMDQIRPNTELKEKIQRWLAERKQQKEQPE

No constants are given. Whether binding was seen depends on the method and setting. In cells and extracts the contact can be indirect. These calls come from enrichment with a bait or labelling near it, and not all partners need be listed.
